Assay results as given in patent US20260008815A1, “CYCLIC PEPTIDE OR SALT THEREOF, AND USES THEREOF” (FUJIFILM Corporation, priority 2023, published 2026).
These are yes or no findings as the source states them, for the method shown. Some results given as binding are weak or reduced against the parent protein; the word gives no strength.

By UniProt entry, the sequences of proteins in these tests, tags left out. Where a name states a change or a piece, a line headed by the entry shows the natural chain unless it says otherwise. Residues count along the entry.
UniProt P11362, residues 22-376: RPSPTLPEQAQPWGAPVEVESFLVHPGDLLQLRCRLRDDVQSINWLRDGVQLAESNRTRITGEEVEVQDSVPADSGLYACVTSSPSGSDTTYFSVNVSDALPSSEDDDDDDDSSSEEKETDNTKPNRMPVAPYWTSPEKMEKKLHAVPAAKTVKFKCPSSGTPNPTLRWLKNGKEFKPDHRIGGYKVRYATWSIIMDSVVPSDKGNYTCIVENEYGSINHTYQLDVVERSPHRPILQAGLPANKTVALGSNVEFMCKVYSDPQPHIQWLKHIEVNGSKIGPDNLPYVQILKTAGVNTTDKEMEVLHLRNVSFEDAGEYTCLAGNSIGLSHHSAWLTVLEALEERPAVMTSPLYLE
UniProt P21802, residues 22-377: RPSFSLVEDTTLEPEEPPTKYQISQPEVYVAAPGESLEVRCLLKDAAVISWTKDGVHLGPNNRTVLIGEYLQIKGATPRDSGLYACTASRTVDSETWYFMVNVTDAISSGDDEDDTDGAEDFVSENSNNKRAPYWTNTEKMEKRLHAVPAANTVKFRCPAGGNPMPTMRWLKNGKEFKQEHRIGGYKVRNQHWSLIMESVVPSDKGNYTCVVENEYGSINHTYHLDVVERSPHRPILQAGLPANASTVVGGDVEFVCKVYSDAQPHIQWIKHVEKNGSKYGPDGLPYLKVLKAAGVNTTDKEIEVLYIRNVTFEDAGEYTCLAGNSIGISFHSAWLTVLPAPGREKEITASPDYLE
UniProt P22607, residues 23-375: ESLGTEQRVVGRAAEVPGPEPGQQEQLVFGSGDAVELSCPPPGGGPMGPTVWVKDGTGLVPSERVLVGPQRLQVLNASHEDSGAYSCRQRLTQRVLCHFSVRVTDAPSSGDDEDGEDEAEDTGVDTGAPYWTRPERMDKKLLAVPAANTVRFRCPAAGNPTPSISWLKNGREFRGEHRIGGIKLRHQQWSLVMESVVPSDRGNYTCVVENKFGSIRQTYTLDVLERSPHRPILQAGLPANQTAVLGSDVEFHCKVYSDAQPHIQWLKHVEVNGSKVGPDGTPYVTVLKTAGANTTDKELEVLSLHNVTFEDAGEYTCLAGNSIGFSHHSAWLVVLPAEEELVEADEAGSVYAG

Columns and labels:
Test in all cases: SPR, 1 umol/L FGFR over immobilized peptide
[1] = target: FGFR1 Protein, Human, Recombinant (His Tag) (Sino Biological, 10616-H08H) (human) (UniProt P11362)
[2] = target: FGFR2 Protein, Human, Recombinant (His Tag) (Sino Biological, 10824-H08H) (human) (UniProt P21802)
[3] = target: FGFR3 Protein, Human, Recombinant (ECD, His Tag) (Sino Biological, 16044-H08H) (human) (UniProt P22607)

- binding [1]: binds
- binding [2]: binds
- binding [3]: binds
Binder: YCEENYLDPEQYQYFIYFKYKKK (thioether ring (C)-(K(acetyl))) [cyclic peptide SEQ ID NO: 450]
